# Drug screen on melanoma cell lines: apoptosis marker

Source: doi:10.1371/journal.pone.0140310, primary screening data, rounded.

Compounds and concentrations:
GSK0660: COC(=O)c1sccc1S(=O)(=O)Nc1ccc(Nc2ccccc2)cc1OC at 5000 nM
LFM-A13: C/C(O)=C(\C#N)C(=O)Nc1cc(Br)ccc1Br at 10000 nM
everolimus: CO[C@H]1C[C@@H]2CC[C@@H](C)[C@@](O)(O2)C(=O)C(=O)N2CCCC[C@H]2C(=O)O[C@H]([C@H](C)C[C@@H]2CC[C@@H](OCCO)[C@H](OC)C2)CC(=O)[C@H](C)/C=C(\C)[C@@H](O)[C@@H](OC)C(=O)[C@H](C)C[C@H](C)/C=C/C=C/C=C/1C at 100 nM
STA-4783: CN(NC(=O)CC(=O)NN(C)C(=S)c1ccccc1)C(=S)c1ccccc1 at 30 nM
vismodegib: CS(=O)(=O)c1ccc(C(=O)Nc2ccc(Cl)c(-c3ccccn3)c2)c(Cl)c1 at 5000 nM
L-779450: Oc1cc(-c2nc(-c3ccccc3)[nH]c2-c2ccncc2)ccc1Cl at 1000 nM
tamatinib: COc1cc(Nc2ncc(F)c(Nc3ccc4c(n3)NC(=O)C(C)(C)O4)n2)cc(OC)c1OC at 2000 nM
cediranib: COc1cc2c(Oc3ccc4[nH]c(C)cc4c3F)ncnc2cc1OCCCN1CCCC1 at 2000 nM
GW0742: Cc1cc(SCc2sc(-c3ccc(C(F)(F)F)c(F)c3)nc2C)ccc1OCC(=O)O at 10000 nM
KU-55933: O=c1cc(-c2cccc3c2Sc2ccccc2S3)oc(N2CCOCC2)c1 at 5000 nM
palbociclib: CC(=O)c1c(C)c2cnc(Nc3ccc(N4CCNCC4)cn3)nc2n(C2CCCC2)c1=O at 200 nM
ABT-263: CC1(C)CCC(c2ccc(Cl)cc2)=C(CN2CCN(c3ccc(C(=O)NS(=O)(=O)c4ccc(N[C@H](CCN5CCOCC5)CSc5ccccc5)c(S(=O)(=O)C(F)(F)F)c4)cc3)CC2)C1 at 2000 nM
OSI-906: C[C@]1(O)C[C@@H](c2nc(-c3ccc4ccc(-c5ccccc5)nc4c3)c3c(N)nccn32)C1 at 2000 nM
erlotinib: C#Cc1cccc(Nc2ncnc3cc(OCCOC)c(OCCOC)cc23)c1 at 4000 nM
T0901317: O=S(=O)(c1ccccc1)N(CC(F)(F)F)c1ccc(C(O)(C(F)(F)F)C(F)(F)F)cc1 at 7000 nM
fingolimod: CCCCCCCCc1ccc(CCC(N)(CO)CO)cc1 at 10000 nM
GW9662: O=C(Nc1ccccc1)c1cc([N+](=O)[O-])ccc1Cl at 10000 nM
PD173074: CCN(CC)CCCCNc1ncc2cc(-c3cc(OC)cc(OC)c3)c(NC(=O)NC(C)(C)C)nc2n1 at 500 nM
MK-1775: C=CCn1c(=O)c2cnc(Nc3ccc(N4CCN(C)CC4)cc3)nc2n1-c1cccc(C(C)(C)O)n1 at 100 nM
pazopanib: Cc1ccc(Nc2nccc(N(C)c3ccc4c(C)n(C)nc4c3)n2)cc1S(N)(=O)=O at 2000 nM

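Human melanoma cell lines in 1,536-well plates were treated with two drugs together for 72 h, then fixed, stained and imaged. Each value is the cleaved-PARP-positive fraction of nuclei relative to DMSO-treated wells, in %, so that 100 equals the control and higher values mean more apoptosis. Every drug was used at one fixed concentration, the higher of two screened. These are primary screening values without error estimates. Basal and induced levels differ widely between cell lines.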 An unselected part of the screen is shown. An entry leaves out what has no value listed here.

{"combination": "KU-55933 + ABT-263", "LOX IMVI": 147, "COLO 792": 627, "WM3619": 127, "WM115": 127}
{"combination": "ABT-263 + LFM-A13", "LOX IMVI": 101, "COLO 792": 1790, "WM3619": 137, "WM115": 295}
{"combination": "T0901317 + pazopanib", "LOX IMVI": 49.5, "COLO 792": 63.5, "WM3619": 85.9, "WM115": 116}
{"combination": "palbociclib + fingolimod", "LOX IMVI": 168, "COLO 792": 3220, "WM3619": 15500, "WM115": 3250}
{"combination": "OSI-906 + palbociclib", "LOX IMVI": 132, "COLO 792": 54.3, "WM3619": 170, "WM115": 153}
{"combination": "LFM-A13 + GW0742", "LOX IMVI": 26.8, "COLO 792": 126, "WM3619": 116, "WM115": 123}
{"combination": "L-779450 + PD173074", "LOX IMVI": 98.6, "COLO 792": 95.0, "WM3619": 126, "WM115": 179}
{"combination": "T0901317 + PD173074", "LOX IMVI": 169, "COLO 792": 94.6, "WM3619": 130, "WM115": 87.4}
{"combination": "GW0742 + tamatinib", "LOX IMVI": 276, "COLO 792": 261, "WM3619": 161, "WM115": 53.3}
{"combination": "erlotinib + vismodegib", "LOX IMVI": 110, "COLO 792": 199, "WM3619": 94.1, "WM115": 203}
{"combination": "STA-4783 + OSI-906", "LOX IMVI": 114, "COLO 792": 475, "WM3619": 852, "WM115": 1150}
{"combination": "OSI-906 + everolimus", "LOX IMVI": 126, "COLO 792": 257, "WM3619": 407, "WM115": 270}
{"combination": "fingolimod + L-779450", "LOX IMVI": 1840, "COLO 792": 11500, "WM115": 420}
{"combination": "erlotinib + L-779450", "LOX IMVI": 116, "COLO 792": 189, "WM3619": 168, "WM115": 99.0}
{"combination": "KU-55933 + vismodegib", "LOX IMVI": 93.9, "COLO 792": 165, "WM3619": 84.6, "WM115": 182}
{"combination": "erlotinib + tamatinib", "LOX IMVI": 321, "COLO 792": 402, "WM3619": 116, "WM115": 199}
{"combination": "GW0742 + pazopanib", "LOX IMVI": 100, "COLO 792": 53.6, "WM3619": 92.0, "WM115": 68.7}
{"combination": "T0901317 + palbociclib", "LOX IMVI": 156, "COLO 792": 150, "WM3619": 127, "WM115": 338}
{"combination": "LFM-A13 + cediranib", "LOX IMVI": 157, "COLO 792": 97.0, "WM3619": 107, "WM115": 58.9}
{"combination": "STA-4783 + GSK0660", "LOX IMVI": 49.9, "COLO 792": 1320, "WM3619": 581, "WM115": 1380}
{"combination": "GSK0660 + KU-55933", "LOX IMVI": 87.0, "COLO 792": 66.9, "WM3619": 118, "WM115": 42.7}
{"combination": "ABT-263 + erlotinib", "LOX IMVI": 63.6, "COLO 792": 6550, "WM3619": 119, "WM115": 1690}
{"combination": "MK-1775 + palbociclib", "LOX IMVI": 87.3, "COLO 792": 158, "WM3619": 159, "WM115": 129}
{"combination": "GW9662 + MK-1775", "LOX IMVI": 166, "COLO 792": 160, "WM3619": 284, "WM115": 121}
{"combination": "GW0742 + cediranib", "LOX IMVI": 29.8, "COLO 792": 79.1, "WM3619": 98.7, "WM115": 109}

3 of the entries, repeated:

| Combination | LOX IMVI | COLO 792 | WM3619 | WM115 |
|---|---|---|---|---|
| GW0742 + tamatinib | 276 | 261 | 161 | 53.3 |
| LFM-A13 + GW0742 | 26.8 | 126 | 116 | 123 |
| erlotinib + tamatinib | 321 | 402 | 116 | 199 |